This is an account of results in the supplement of paper PMC8426693.

SMILES strings stand for the structures. The list shows a part of the results.

The test relates to SARS-CoV-2 3_s2m RNA. The test is described as follows: NMR binding call after quantification (hit when 2 of 3 NMR criteria are met) (binary (1 = binding, 0 = not binding)); higher = binding. Particulars: RNA concentration 10 µM; fragment concentration 200 µM; 293 K.
Take `c1csc(-c2nnc[nH]2)n1`: the NMR binding call turned out to be 0.
Regarding `CC(=O)Nc1ccccc1OCc1ccccc1`, the NMR binding call worked out at 0.
Consider `Cc1ccc(-c2nc(N)sc2C)cc1C`, for which the NMR binding call is 0.
Consider `CN(C)c1ccncc1`, for which the NMR binding call was determined as 0.
As to `O=C(Cc1ccccc1)N1CCc2ccccc21`, the NMR binding call stood at 0.
The compound `O=C1CN(Cc2ccccc2)CC(=O)N1` displayed an NMR binding call of 0.
As to `O=C(NCCc1ccncc1)c1ccccc1F`, the NMR binding call worked out at 0.
In the case of `O=C(CC1CCCCC1)Nc1cccnc1`, the NMR binding call was 0.
To `Cc1cc2ncn(CC(N)=O)c2cc1C` belongs 0; to `COc1ccc(C(N)c2ccccc2)cc1.Cl` (centres undefined), 0; to `CCN(CC)c1cccc(O)c1`, 0.
In turn, `CC(=O)Nc1ccc(N2CCN(C)CC2)cc1` returned an NMR binding call of 0.
As for `CCCc1cc(=O)oc2cc(OC(C)=O)ccc12`, the figure is 0; as for `CC(=O)Nc1ccncc1C`, 0.
To `CC(=O)Nc1cc(C(=O)O)ccc1F` belongs 0.
As for `COCC(=O)Nc1ccccc1C(N)=O`, the NMR binding call is 0.
As for `Cc1ccc(C(=O)Nc2nnc[nH]2)cc1C`, the figure is 0; as for `NCc1ccccc1OC(F)(F)F`, 0.
In turn, `N#CCC(=O)Nc1ccc(Cl)cc1` gave an NMR binding call of 0.
Regarding `Cc1ccc(CNC(=O)C2CCC2)cn1`, the NMR binding call was determined as 0.
Compound `O=C(NCCc1ccncc1)NC1CCCCC1` gave an NMR binding call of 0.
Regarding `CCOc1ccc(C(=O)Nc2cc(C)on2)cc1`, the NMR binding call came out at 0.
As to `Cc1nc2ccccc2n1CCC(N)=O`, the NMR binding call turned out to be 0.
In the case of `CCN(CC)S(=O)(=O)c1ccc(C)cc1`, the NMR binding call turned out to be 0.
Turning to `Cl.NC1CCN(S(=O)(=O)c2ccccc2)C1` (centres undefined), the NMR binding call was 0.
The compound `CNS(=O)(=O)c1ccccc1Cl` showed an NMR binding call of 0.
In turn, `COC(=O)C1CC(O)CN1C(=O)c1ccco1` (centres undefined) yielded an NMR binding call of 0.
The compound `CC(C)C(=O)NCc1nc2ccccc2[nH]1` returned an NMR binding call of 0.
To `Cc1occc1C(=O)Nc1cc(C(C)(C)C)on1` belongs 0; to `O=C(Nc1ccc(F)cc1)Nc1cccc(O)c1`, 0; to `Cc1cccc(C(=O)Nc2ccc(C)cc2O)c1`, 0.
Consider `FC(F)(F)c1ccc(CN2CCOCC2)cc1`, for which the NMR binding call turned out to be 0.
Compound `CC(O)CNC(=O)Nc1ccccc1` (centres undefined) registered an NMR binding call of 0.
To `CCCC(=O)Nc1cccnc1Cl` belongs 0.
For `CC(C)Nc1nc2ccccc2[nH]1`, the NMR binding call was determined as 0.
With `Nc1ncncc1-c1ccc(Cl)cc1`, the NMR binding call was 0.
To `CC(C)N(C)c1ncnc2c1cnn2C` belongs 0; to `NC(=O)C1CCCn2ccnc21` (centres undefined), 0; to `CN(C)c1ccc(CNn2cnnc2)cc1`, 0.
